Source: US7550506B2, “Amino acid derived prodrugs of propofol, compositions and uses thereof” (XenoPort, Inc., priority 2004, dated 2009)
Some of these results come from one statement about several compounds together. At least one compound was matched to its structure with a doubt left.

How the values were obtained:
[1] = Uptake of propofol following oral administration of prodrugs to monkeys; type: in vivo, Cynomologous (Macaca fascicularis) monkeys; conditions: oral gavage, 25 mg-equivalents of propofol per kg; vs AUC after intravenous propofol, dose-normalized
[2] = system: PEPT1; assay: Electrogenic transport in PEPT1-expressing Xenopus oocytes; type: cell-based, rat and human; conditions: tested at 3 mM on oocytes expressing PEPT1; normalized to glycyl-sarcosine 1 mM
[3] = Uptake of propofol following oral or intravenous administration to rats; conditions: for Oral bioavailability (F) of propofol in rats: oral gavage, dose equivalent to 25 mg propofol per kg, vs intravenous propofol 15 mg/kg; for Oral bioavailability of propofol compared to the oral bioavailability of propofol itself: rats, oral administration of prodrug

Compound	Oral bioavailability (F) of the prodrugs as propofol in monkeys [1] [%]	PEPT-specific current, % of Imax for Gly-Sar [2]	Oral bioavailability (F) of propofol in rats [3]	Oral bioavailability of propofol compared to the oral bioavailability of propofol itself [3]
CC(C)c1cccc(C(C)C)c1OC(=O)OC(C)C(NC(=O)C(N)CCCN=C(N)N)C(=O)O.Cl.Cl.Cl (stereo not shown) [(23), H-Arp-Thr(γ-OC(O)OPropofol)-OH Tris-Hydrochloride]	> 10			
CC(C)c1cccc(C(C)C)c1OC(=O)OC(C)C(N)C(=O)O (stereo not shown) [(12), H-Thr(γ-OC(O)OPropofol)-OH]	> 10			
CC(C)c1cccc(C(C)C)c1OC(=O)OC(C)C(NC(=O)CN)C(=O)O (stereo not shown) [(10), H-Gly-Thr(γ-OC(O)OPropofol)-OH]	> 10	at least 2 % of Imax for Gly-Sar	greater than 10%	at least 40 times
CSCCC(N)C(=O)NC(C(=O)O)C(C)OC(=O)Oc1c(C(C)C)cccc1C(C)C.Cl (stereo not shown) [(27), H-Met-Thr(γ-OC(O)OPropofol)-OH Hydrochloride]	> 10		greater than 10%	at least 40 times
CC(C)c1cccc(C(C)C)c1OC(=O)OC(C)C(NC(=O)C(N)CCCCN)C(=O)O.Cl.Cl (stereo not shown) [(18), H-Lys-Thr(γ-OC(O)OPropofol)-OH Bis-Hydrochloride]	> 10			
H-Ser-Thr(γ-OC(O)OPropofol)-OH Hydrochloride [(19)]	> 10			
CC(C)c1cccc(C(C)C)c1OC(=O)OC(C)C(NC(=O)C(N)CN)C(=O)O.Cl.Cl (stereo not shown) [(24), H-Dap-Thr(γ-OC(O)OPropofol)-OH Bis-Hydrochloride]	> 10			
CC(C)c1cccc(C(C)C)c1OC(=O)OC(C)C(NC(=O)[C@H](N)CO)C(=O)O.Cl (stereo partly drawn) [(32), H-D-Ser-Thr(γ-OC(O)OPropofol)-OH Hydrochloride]		at least 2 % of Imax for Gly-Sar		
